No constants are given. Whether binding was seen depends on the method and setting. Some binding calls cover weakened binding; strength is not graded here. Blank lines part the entries; values can stand above or below the molecule they belong to.
Columns and labels:
[1] = molecular target: T1, p300 (mouse, UniProt B2RWS6 2-2412); assay: joining PCR of DNA barcode-labeled antibodies in hydrogel with NGS; LPS-stimulated mouse spleen B cells
T1 construct: whole, on cells; Endogenous protein inside fixed, permeabilised LPS-stimulated mouse spleen B cells; It was detected through a DNA barcode-labeled antibody (clone RW128)

By UniProt entry, the sequences of proteins in these tests, tags left out. Residues count along the entry.
UniProt B2RWS6, residues 2-2412: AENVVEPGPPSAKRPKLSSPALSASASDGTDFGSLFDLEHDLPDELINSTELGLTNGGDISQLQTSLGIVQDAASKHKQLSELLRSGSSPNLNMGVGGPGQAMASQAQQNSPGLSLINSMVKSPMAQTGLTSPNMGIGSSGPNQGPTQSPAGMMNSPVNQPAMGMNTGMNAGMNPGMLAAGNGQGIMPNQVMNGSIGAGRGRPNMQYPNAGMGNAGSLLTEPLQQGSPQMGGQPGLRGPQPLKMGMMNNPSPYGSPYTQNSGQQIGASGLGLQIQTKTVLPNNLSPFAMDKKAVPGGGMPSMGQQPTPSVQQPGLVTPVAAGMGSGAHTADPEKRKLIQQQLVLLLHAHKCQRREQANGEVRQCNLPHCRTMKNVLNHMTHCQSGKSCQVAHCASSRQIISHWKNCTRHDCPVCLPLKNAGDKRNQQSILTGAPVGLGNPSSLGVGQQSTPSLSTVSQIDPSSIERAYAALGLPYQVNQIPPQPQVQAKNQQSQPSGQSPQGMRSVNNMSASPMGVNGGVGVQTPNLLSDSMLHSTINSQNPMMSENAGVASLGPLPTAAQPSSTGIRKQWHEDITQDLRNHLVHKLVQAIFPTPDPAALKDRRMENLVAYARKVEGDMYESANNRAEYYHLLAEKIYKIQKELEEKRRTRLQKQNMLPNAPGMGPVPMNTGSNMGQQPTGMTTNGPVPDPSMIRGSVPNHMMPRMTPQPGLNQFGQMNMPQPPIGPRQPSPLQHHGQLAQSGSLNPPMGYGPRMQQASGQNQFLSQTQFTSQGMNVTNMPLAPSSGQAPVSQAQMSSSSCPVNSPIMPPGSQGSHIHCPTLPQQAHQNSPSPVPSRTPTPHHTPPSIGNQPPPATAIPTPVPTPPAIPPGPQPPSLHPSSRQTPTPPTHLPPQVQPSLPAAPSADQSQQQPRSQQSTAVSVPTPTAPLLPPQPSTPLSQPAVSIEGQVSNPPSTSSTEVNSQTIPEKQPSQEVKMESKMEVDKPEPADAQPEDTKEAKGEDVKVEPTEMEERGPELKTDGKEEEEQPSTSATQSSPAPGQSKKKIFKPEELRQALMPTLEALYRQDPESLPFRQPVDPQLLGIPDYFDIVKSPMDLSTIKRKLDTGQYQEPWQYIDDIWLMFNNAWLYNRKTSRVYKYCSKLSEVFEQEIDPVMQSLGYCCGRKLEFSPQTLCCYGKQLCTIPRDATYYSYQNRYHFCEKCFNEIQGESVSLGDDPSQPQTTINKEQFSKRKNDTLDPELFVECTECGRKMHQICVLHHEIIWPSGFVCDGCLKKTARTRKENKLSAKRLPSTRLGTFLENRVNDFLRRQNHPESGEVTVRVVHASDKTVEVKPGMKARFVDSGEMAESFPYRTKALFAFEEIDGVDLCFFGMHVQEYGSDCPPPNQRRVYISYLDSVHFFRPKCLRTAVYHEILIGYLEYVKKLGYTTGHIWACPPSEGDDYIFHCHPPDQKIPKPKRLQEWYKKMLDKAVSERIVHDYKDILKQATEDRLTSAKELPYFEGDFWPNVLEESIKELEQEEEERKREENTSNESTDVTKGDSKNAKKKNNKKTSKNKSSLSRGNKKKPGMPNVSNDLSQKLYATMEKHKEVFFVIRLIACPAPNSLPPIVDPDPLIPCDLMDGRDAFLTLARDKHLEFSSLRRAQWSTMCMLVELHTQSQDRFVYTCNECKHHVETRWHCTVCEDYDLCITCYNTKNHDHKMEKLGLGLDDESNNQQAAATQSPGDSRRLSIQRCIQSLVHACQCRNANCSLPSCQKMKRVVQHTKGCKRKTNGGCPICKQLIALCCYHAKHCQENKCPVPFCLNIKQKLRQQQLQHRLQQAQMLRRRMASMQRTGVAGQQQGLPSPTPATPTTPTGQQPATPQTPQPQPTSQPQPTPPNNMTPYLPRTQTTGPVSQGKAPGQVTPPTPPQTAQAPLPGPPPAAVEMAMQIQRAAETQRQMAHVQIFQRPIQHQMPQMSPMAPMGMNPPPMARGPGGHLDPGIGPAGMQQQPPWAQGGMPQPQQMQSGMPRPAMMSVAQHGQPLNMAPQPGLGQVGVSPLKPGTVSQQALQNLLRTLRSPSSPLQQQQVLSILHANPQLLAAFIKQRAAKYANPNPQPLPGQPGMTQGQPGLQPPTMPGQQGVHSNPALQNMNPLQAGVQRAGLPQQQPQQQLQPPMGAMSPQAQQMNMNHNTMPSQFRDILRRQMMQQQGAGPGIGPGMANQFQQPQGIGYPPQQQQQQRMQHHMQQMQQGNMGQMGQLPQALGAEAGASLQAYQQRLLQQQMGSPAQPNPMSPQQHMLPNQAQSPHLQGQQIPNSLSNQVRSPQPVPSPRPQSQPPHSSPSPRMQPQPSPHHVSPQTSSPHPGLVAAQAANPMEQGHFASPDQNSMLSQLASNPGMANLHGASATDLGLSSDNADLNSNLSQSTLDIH
UniProt P01108: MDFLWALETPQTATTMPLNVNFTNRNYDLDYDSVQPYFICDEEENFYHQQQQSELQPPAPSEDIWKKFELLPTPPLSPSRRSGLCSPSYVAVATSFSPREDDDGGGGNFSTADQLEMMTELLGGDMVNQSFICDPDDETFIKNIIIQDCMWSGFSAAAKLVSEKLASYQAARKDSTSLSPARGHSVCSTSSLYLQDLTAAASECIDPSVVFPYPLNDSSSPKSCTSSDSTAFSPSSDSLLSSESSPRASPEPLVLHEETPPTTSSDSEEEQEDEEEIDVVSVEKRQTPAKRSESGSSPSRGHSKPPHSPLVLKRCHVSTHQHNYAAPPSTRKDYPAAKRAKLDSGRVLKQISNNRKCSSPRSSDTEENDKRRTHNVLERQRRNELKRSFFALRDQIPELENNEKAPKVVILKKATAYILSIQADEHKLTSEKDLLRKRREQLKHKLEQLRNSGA

[2] = molecular target: c-Myc (mouse) (UniProt P01108); assay: as above

binding [1]: binds
Molecule: c-Myc (from UniProt P01108 1-454)

binding [2]: binds
B1: Lamin B1 (other, mouse, UniProt P14733 2-585, looked up)
chain: ATATPVQQQRAGSRASAPATPLSPTRLSRLQEKEELRELNDRLAVYIDKVRSLETENSALQLQVTEREEVRGRELTGLKALYETELADARRALDDTARERAKLQIELGKFKAEHDQLLLNYAKKESDLSGAQIKLREYEAALNSKDAALATALGDKKSLEGDLEDLKDQIAQLEASLSAAKKQLADETLLKVDLENRCQSLTEDLEFRKNMYEEEINETRRKHETRLVEVDSGRQIEYEYKLAQALHEMREQHDAQVRLYKEELEQTYHAKLENARLSSEMNTSTVNSAREELMESRMRIESLSSQLSNLQKESRACLERIQELEDMLAKERDNSRRMLSDREREMAEIRDQMQQQLSDYEQLLDVKLALDMEISAYRKLLEGEEERLKLSPSPSSRVTVSRASSSRSVRTTRGKRKRVDVEESEASSSVSISHSASATGNVCIEEIDVDGKFIRLKNTSEQDQPMGGWEMIRKIGDTSVSYKYTSRYVLKAGQTVTVWAANAGVTASPPTDLIWKNQNSWGTGEDVKVILKNSQGEEVAQRSTVFKTTIPEEEEEEEEEPIGVAVEEERFHQQGAPRASNKSC
notes: whole, on cells; Endogenous protein inside fixed, permeabilised LPS-stimulated mouse spleen B cells; It was detected through a DNA barcode-labeled antibody (clone L-5)

From patent US20250258165A1 (OSAKA UNIVERSITY, published 2025)
